# Measured values taken from the supplement of paper PMC7024190.
# Structures can show the parent of a compound that is named as a salt. Some of the results follow. Single values are uncertain here, since repeats match poorly.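 A first-round screen of about ten thousand compounds sought those raising reporter output, using human embryonic kidney cells briefly transfected with a plasmid carrying a Renilla luciferase gene driven by the HSV-TK promoter.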
# Test system: HEK 293FT
# Experiment: log relative Renilla luciferase luminescence (reporter expression vs reference, reference not stated) (log (base not stated)); higher = higher recombinant reporter expression
# Details: 10 µM; time after transfection 48 h
row,SMILES,log
1,Cc1oncc1C(=O)Nc1ccc(C(F)(F)F)cc1 [Leflunomide],0.00816
2,COc1ccc(C(Cl)=C(c2ccc(OC)cc2)c2ccc(OC)cc2)cc1 [Chlorotrianisene],-0.0596
3,O=C(O)c1cccnc1Nc1cccc(C(F)(F)F)c1 [Niflumic acid],0.0676
4,CC(CCc1ccccc1)NCC(O)c1ccc(O)c(C(N)=O)c1 (stereo unspecified) [Labetalol hydrochloride],-0.0127
5,CCOC(=O)[C@H](CCc1ccccc1)N[C@@H](C)C(=O)N1Cc2ccccc2C[C@H]1C(=O)O [Quinapril HCl],0.0404
6,Cc1onc(-c2c(Cl)cccc2Cl)c1C(=O)N[C@@H]1C(=O)N2[C@@H]1SC(C)(C)[C@@H]2C(=O)O [Dicloxacillin sodium salt hydrate],0.0581
7,CN1C(C)(C)CCCC1(C)C [Pempidine tartrate],0.288
8,C[N+](C)(C)CCCCCC[N+](C)(C)C [Hexamethonium dibromide dihydrate],0.116
9,CC[N+](C)(C)Cc1ccccc1Br [Bretylium tosylate],-0.00375
10,CN(C)/N=N/c1[nH]cnc1C(N)=O [Dacarbazine],-0.0103
11,Cc1cc2c(cc1S(N)(=O)=O)S(=O)(=O)CCC2 [Meticrane],-0.111
12,Clc1cnccn1 [2-Chloropyrazine],0.123
13,NCCNCCNCCNCCN [Tetraethylenepentamine pentahydrochloride],0.234
14,CC1(C)S[C@@H]2[C@H](NC(=O)[C@H](NC(=O)N3CCNC3=O)c3ccccc3)C(=O)N2[C@H]1C(=O)O [Azlocillin sodium salt],-0.374
15,COC(=O)Nc1nc2cc(C(=O)c3ccccc3)ccc2[nH]1 [Mebendazole],0.0569
16,CSc1ccc2c(c1)C(N1CCN(C)CC1)Cc1ccccc1S2 (stereo unspecified) [Methiothepin maleate],0.12
17,CC(C(=O)O)c1ccc2c(c1)Cc1cccnc1O2 (stereo unspecified) [Pranoprofen],-0.206
18,Cc1c(C)c2c(c(C)c1O)CCC(C)(COc1ccc(CC3SC(=O)NC3=O)cc1)O2 (stereo unspecified) [Troglitazone],-0.165
19,COC(c1ccccc1)(c1ccccc1)[C@H](Oc1nc(C)cc(C)n1)C(=O)O [Ambrisentan],0.111
20,COc1ccc([C@@H]2CC(=O)c3c(O)cc(O[C@@H]4O[C@H](CO[C@@H]5O[C@@H](C)[C@H](O)[C@@H](O)[C@H]5O)[C@@H](O)[C@H](O)[C@H]4O)cc3O2)cc1O [Hesperidin],0.0795
21,CC(C)(C(=O)O)c1ccc(C(O)CCCN2CCC(C(O)(c3ccccc3)c3ccccc3)CC2)cc1 (stereo unspecified) [Fexofenadine HCl],0.0554

# 2 entries from above in a different format:
row | SMILES | log
13 | NCCNCCNCCNCCN [Tetraethylenepentamine pentahydrochloride] | 0.234
18 | Cc1c(C)c2c(c(C)c1O)CCC(C)(COc1ccc(CC3SC(=O)NC3=O)cc1)O2 (stereo unspecified) [Troglitazone] | -0.165
